Results on 2 compounds are retold here after US20260116868A1 (Arcus Biosciences, Inc., priority 2023, published 2026).

Protein sequences, listed by entry. Tags and fused reporters are not part of them.
UniProt Q13191, whole entry: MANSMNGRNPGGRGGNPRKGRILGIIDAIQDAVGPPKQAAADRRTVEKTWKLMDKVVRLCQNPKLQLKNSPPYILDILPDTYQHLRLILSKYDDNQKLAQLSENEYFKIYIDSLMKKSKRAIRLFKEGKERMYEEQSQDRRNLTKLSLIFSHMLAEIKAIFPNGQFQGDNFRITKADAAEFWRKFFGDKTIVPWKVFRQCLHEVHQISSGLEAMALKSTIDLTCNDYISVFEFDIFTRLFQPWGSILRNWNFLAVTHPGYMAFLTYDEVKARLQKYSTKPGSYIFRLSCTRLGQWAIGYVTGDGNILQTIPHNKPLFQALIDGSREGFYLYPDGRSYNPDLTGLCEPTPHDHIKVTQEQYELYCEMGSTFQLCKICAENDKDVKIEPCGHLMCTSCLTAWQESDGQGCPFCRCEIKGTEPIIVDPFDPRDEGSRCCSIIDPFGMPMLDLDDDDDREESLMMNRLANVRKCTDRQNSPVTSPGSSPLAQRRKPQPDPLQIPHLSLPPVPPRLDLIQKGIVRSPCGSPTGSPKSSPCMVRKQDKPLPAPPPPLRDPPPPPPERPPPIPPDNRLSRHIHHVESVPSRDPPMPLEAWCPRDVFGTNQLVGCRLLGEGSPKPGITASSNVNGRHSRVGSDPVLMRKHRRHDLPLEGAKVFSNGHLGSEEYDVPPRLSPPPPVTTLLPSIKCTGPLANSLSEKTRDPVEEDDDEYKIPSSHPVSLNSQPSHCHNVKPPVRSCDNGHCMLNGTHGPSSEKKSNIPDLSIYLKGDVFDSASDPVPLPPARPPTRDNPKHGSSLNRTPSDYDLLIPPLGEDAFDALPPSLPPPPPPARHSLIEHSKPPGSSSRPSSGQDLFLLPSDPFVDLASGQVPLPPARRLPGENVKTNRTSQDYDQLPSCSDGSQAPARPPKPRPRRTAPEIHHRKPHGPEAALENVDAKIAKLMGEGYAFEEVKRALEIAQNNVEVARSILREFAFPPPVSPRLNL

The structures given here were assigned with low confidence; some may be wrong. Bounds are passed on as bounds.

One assay addresses Cbl-b (Homo sapiens, UniProt Q13191). Kind of assay: Cbl-b probe displacement HTRF binding assay. The settings on record: read-out: Cbl-b Binding (IC50), 0.4 nM Cbl-b, 150 nM BODIPY probe. The protocol:
The affinity with which compounds of the present disclosure bind to Cbl-b was assessed using probe displacement homologous time resolved fluorescence (HTRF) assays. The assays used a BODIPY™ conjugated probe (Example 54 from WO 2020264398) and biotinylated Cbl-b. The assays were performed in assay buffer consisting of 20 mM Hepes, 150 mM NaCl, 0.01% Triton X-100, 0.5 mM TCEP, 0.01% BSA. On the day of the assay, a 20 point, 1:2 master serial dilution of each compound was prepared in DMSO to span a final concentration range of […] to 0 nM. Two hundred nanoliters of diluted compound was added to each well of a 384-well plate. Fifteen microliters of biotinylated- Cbl-b resuspended in assay buffer were added to each well and the plate incubated for 60 minutes at room temperature prior to addition of 5 μL of BODIPY™ probe in assay buffer. Final assay conditions included 0.4 nM of Cbl-b and 150 nM of BODIPY™ probe. […] HTRF signal was measured by Envision plate reader, while competition of a compound of the present disclosure with probe results in a decrease of signal. Percentage maximum activity in each test well was calculated based on DMSO (maximum activity, 0% displacement) and no protein control wells (baseline activity, 100% displacement). Binding affinity was determined from a dose response curve fitted using a standard four parameter fit equation. […]

In the next assay the test system is Jurkat cells. Kind of assay: IL-2 secretion assay in Jurkat cells activated with CD3/CD28 T Cell Activator. Format: cell-based, human. To be noted: read-out: IL-2 Secretion (EC50), 24 h, IL-2 AlphaLISA. The protocol: Certain compounds were also evaluated in an IL-2 secretion assay. On the day of the assay, a 16 point, 1:2 master serial dilution of each compound was prepared in Opti-MEM to span a final concentration range of 10 μM to 300 pM. Assays were set up in CORNING® tissue culture-treated 384-well microplates containing 60 nL of each dilution. Jurkat cells grown in RPMI-1640 supplemented with 10% FBS, 1% Glutamax, and 1% Pen/Strep were collected, resuspended in Opti-MEM. 50,000 cells/well and added to the compound plates. After a short spin (1200 rpm for 1 min), the plates were incubated at 37° C. for 1 hour. The cells were activated by adding 15 μL of IMMUNOCULT™ Human CD3/CD28 T Cell Activator (STEMCELL Technologies) diluted in Opti-MEM. After 24 h of incubation at 37° C., aliquots of culture supernatants were transferred to OptiPlate-384 (PerkinElmer) microplates. The level of IL-2 secretion in the supernatants was then determined using the IL-2 (human) AlphaLISA Detection Kit (PerkinElmer) according to the manufacturer's recommendations. The AlphaLISA signal was measured using an EnVision plate reader (PerkinElmer). EC50 values were determined by fitting the data to a standard 4-parameter logistic equation. See Table 7 for data for select compounds (IL-2 Secretion (EC50)).
A general note: Bead proximity is the source of the signal in Alpha formats.

In the case of `N#Cc1ccc(-c2cc(NC(=O)c3cc(CN[C@@H]4CCOC4)cn(C4CC4)c3=O)nc(C3CC3)c2)c(-c2nncn2C(F)F)c1`, on Cbl-b, the IC50 (as a rule, the point on the concentration scale where inhibition reaches its midpoint) is under 100 nM. Further, in the assay with Jurkat cells, the EC50 – broadly, the midpoint of the concentration-response curve – lay within 100 to 1000 nM.

On to `C[C@H](NCc1cc(C(=O)Nc2cc(-c3c(F)cc(C#N)cc3C(=O)N3CC(F)(F)C3)cc(C3CC3)n2)c(=O)n(C)c1)C1CCC1`, for which the IC50 on Cbl-b is under 100 nM.
